Reference: patent US8568755B2 (priority 2007, dated 2013)
Where “and” joins values, the source holds several entries; their conditions need not be identical. Equal values may be shown once. Read-outs that look alike come from different tables or passages of the source. The name of at least one read-out is uncertain.

What was measured:
Erysiphe graminis = assay: Test on preventive effect against wheat powdery mildew (Test Example 1); assay type: in vivo; settings: fungicide (b) alone 100 ppm
Sphaerotheca fuliginea = assay type: in vivo

`CC(=O)c1c(C)c(C)nc2c(F)cc(C(C)(C)C)cc12` [compound β, 2,3-dimethyl-6-t-butyl-8-fluoro-4-acetylquinoline] was tested, and the “diseased area ratio to non-treated section” value (Erysiphe graminis) was 20.0 and 35.0.

In the case of `Cc1ccc(-c2c(Cl)nc(C#N)n2S(=O)(=O)N(C)C)cc1` [cyazofamid, reference compound], the “diseased area ratio to non-treated section” value (Sphaerotheca fuliginea; partner fungicide alone 31 ppm) is reported as 80.0 and 85.0.

For `N#Cc1c(Cl)c(Cl)c(Cl)c(C#N)c1Cl` [chlorothalonil], the “diseased area ratio to non-treated section” value (Sphaerotheca fuliginea; partner fungicide alone 8 ppm) was 45.0 and 55.0.
